Assay results as given in paper PMC9024448.
No constants are given. Whether binding was seen depends on the method and setting. In cells and extracts the contact can be indirect. Some binding calls cover weakened binding; strength is not graded here. One block for each molecule: values may come before it.

Amino acid sequences for entries named in this document (tags omitted).
UniProt Q61831: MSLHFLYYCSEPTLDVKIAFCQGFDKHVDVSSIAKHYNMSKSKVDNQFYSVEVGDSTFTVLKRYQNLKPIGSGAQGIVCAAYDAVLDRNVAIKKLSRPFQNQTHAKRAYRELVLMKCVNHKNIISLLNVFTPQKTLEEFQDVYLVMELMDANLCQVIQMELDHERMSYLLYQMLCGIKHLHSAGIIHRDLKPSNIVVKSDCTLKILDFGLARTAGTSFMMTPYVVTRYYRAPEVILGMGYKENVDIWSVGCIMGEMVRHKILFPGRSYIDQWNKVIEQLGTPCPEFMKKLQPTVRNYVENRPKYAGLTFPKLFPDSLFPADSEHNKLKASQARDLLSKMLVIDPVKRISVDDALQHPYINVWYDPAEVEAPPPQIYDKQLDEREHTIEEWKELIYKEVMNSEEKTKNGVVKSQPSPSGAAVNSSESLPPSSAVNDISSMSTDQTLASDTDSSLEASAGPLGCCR
UniProt Q91YI4: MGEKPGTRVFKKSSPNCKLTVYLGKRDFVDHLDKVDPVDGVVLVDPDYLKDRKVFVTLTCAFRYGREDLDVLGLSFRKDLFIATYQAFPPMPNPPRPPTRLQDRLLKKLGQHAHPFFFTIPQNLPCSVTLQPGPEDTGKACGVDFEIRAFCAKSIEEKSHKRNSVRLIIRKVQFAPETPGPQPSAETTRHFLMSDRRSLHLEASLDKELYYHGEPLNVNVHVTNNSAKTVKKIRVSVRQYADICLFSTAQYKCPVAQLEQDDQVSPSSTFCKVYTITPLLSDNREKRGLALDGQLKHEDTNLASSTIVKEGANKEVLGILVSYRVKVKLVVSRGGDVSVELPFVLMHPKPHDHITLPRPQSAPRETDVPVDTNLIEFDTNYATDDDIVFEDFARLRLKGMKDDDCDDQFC

Tests used:
[1] = target: T1, JIP1 (mouse (endogenous in murine hippocampal primary neurons and mouse brain)) (UniProt Q9WVI9); test: co-IP; Triton-insoluble fraction (TIF, postsynaptic protein-enriched) of mouse brain in PBS and 0.5% Triton X-100 (300 μg), 1 μg antibody (anti-JIP1, anti-PSD95, anti-JNK3 or anti-β-arrestin2) overnight at 4 °C, beads 1 h at 4 °C, five washes with PBS and 0.5% Triton, Western blot; IgG as control
T1 sequence: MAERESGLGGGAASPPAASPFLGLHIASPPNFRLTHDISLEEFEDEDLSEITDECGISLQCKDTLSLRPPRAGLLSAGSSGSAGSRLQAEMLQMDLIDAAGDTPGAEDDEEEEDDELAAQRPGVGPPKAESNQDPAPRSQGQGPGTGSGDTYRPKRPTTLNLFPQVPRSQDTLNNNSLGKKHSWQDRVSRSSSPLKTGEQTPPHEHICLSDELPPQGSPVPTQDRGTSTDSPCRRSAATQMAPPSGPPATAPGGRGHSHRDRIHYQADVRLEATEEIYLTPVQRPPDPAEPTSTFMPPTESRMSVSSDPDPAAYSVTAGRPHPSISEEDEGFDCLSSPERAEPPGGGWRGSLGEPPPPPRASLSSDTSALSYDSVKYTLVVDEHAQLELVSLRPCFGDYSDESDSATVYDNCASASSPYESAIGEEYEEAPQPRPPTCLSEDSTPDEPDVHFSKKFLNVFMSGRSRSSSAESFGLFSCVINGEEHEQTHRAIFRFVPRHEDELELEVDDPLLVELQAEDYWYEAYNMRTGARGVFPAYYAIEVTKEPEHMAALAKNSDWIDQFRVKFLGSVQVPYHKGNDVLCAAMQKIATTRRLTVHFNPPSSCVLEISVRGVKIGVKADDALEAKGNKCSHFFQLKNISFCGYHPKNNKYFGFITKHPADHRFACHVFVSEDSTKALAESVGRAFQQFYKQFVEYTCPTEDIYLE

[2] = target: c-Jun N-terminal kinase 3 (JNK3) (mouse (endogenous in murine hippocampal primary neurons and mouse brain)) (UniProt Q61831); test: co-IP; protein extracts of cultured murine hippocampal primary neurons (300 μg), 1 μg antibody (anti-PSD95 or anti-JNK3) overnight at 4 °C, Dyna beads or protein A/G agarose 1 h at 4 °C, five washes with PBS and 0.5% Triton, Western blot; IgG as control
[3] = target: c-Jun N-terminal kinase 3 (JNK3) (mouse (endogenous in murine hippocampal primary neurons and mouse brain)) (UniProt Q61831); test: co-IP; Triton-insoluble fraction (TIF, postsynaptic protein-enriched) of mouse brain in PBS and 0.5% Triton X-100 (300 μg), 1 μg antibody (anti-JIP1, anti-PSD95, anti-JNK3 or anti-β-arrestin2) overnight at 4 °C, beads 1 h at 4 °C, five washes with PBS and 0.5% Triton, Western blot; IgG as control
[4] = target: c-Jun N-terminal kinase 3 (JNK3) (mouse (endogenous in murine hippocampal primary neurons and mouse brain)) (UniProt Q61831); test: co-IP; murine whole-brain (total brain) homogenate in PBS and 1% Triton X (300 μg), 1 μg antibody overnight at 4 °C, beads 1 h at 4 °C, five washes with PBS and 0.5% Triton, Western blot; baits not told in the text (Supplemental Figure S1)

binding [1]: binds
Molecule: c-Jun N-terminal kinase 3 (JNK3) (from UniProt Q61831 1-464) (enzyme)

binding [2]: binds
binding [3]: binds
binding [4]: binds
Molecule: β-arrestin2 (from UniProt Q91YI4 1-410)

binding [2]: binds
binding [4]: binds
B1: JIP1 (protein, UniProt Q9WVI9 1-707)
chain: T1 sequence
